Data: publication PMC3792152

The chains behind the UniProt entries cited, without tags or fusion partners. Residues count along the entry.
UniProt Q8N884, 161-522 C404A: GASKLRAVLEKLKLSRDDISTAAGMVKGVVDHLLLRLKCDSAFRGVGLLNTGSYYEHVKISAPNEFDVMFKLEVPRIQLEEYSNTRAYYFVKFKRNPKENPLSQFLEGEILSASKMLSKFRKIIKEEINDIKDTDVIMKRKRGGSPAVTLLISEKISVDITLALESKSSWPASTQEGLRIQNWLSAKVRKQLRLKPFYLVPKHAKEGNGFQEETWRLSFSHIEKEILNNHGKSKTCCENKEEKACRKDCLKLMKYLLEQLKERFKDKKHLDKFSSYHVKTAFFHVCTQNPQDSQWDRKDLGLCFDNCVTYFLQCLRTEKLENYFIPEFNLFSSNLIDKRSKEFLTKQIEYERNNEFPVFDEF
UniProt Q8N884, 161-522 C405A: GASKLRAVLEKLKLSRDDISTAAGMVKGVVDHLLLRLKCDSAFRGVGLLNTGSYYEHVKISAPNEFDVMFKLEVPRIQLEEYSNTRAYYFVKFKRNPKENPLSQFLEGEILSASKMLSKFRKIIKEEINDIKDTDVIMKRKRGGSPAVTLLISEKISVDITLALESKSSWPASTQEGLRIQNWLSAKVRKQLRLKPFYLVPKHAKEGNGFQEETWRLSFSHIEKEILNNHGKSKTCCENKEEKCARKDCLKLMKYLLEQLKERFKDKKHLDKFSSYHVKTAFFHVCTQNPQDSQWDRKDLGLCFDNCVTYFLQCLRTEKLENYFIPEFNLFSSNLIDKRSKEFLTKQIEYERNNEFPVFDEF
UniProt Q8N884, 161-522: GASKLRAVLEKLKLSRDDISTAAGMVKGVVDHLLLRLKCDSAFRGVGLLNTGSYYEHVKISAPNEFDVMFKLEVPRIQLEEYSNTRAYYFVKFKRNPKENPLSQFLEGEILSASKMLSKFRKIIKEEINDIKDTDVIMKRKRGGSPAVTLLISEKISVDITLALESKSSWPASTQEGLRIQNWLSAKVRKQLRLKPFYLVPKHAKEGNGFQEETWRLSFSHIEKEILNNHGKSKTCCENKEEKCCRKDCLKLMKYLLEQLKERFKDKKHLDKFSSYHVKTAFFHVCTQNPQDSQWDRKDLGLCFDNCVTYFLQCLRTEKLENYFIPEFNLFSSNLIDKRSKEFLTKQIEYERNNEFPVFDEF
UniProt Q8N884, 161-522 K384A: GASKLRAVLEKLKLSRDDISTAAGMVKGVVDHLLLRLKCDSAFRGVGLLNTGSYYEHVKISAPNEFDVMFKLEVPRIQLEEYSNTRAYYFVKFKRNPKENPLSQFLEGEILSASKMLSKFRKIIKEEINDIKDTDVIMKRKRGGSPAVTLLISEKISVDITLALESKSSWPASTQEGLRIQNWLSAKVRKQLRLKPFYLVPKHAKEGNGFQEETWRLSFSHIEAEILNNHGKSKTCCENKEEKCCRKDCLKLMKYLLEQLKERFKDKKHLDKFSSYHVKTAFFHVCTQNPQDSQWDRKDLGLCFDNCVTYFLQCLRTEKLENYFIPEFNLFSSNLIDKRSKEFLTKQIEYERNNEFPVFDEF
UniProt Q8N884, 161-522 K407A: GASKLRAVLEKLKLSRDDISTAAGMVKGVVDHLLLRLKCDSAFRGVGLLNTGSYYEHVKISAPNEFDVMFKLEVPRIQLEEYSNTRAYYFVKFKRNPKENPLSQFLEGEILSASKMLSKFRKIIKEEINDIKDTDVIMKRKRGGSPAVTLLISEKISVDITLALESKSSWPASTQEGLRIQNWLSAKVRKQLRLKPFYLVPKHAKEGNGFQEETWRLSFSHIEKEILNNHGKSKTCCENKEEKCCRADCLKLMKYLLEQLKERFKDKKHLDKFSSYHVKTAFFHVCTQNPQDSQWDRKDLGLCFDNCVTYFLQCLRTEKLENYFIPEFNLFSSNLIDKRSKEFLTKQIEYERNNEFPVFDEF
UniProt Q8N884, 161-522 K411A: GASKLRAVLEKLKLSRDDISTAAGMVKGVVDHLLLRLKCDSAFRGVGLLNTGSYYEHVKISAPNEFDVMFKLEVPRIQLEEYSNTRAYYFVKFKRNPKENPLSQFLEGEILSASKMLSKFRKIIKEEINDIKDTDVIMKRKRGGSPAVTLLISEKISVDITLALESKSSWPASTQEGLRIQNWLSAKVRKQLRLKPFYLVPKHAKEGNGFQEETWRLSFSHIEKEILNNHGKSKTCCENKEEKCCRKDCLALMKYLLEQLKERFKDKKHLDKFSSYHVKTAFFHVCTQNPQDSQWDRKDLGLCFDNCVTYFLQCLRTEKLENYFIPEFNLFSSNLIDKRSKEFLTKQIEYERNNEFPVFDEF
UniProt Q8N884, 161-522 K400E/K403E: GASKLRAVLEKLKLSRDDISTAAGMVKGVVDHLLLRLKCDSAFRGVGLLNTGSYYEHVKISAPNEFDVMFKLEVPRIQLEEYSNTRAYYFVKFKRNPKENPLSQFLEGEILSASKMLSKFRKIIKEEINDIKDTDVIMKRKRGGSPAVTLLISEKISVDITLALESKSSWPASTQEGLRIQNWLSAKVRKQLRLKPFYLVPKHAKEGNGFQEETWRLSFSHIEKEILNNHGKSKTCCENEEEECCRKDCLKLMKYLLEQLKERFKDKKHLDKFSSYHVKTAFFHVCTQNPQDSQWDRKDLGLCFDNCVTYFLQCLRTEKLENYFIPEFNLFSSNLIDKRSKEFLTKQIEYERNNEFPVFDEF

What was measured:
Experiment in all cases: pull-down (streptavidin beads, SDS-PAGE)
Details in all cases: Protein + biotin-ISD 1 h at room temperature, then streptavidin beads 1 h in 50 mM Tris-HCl pH 7.5, 100 mM NaCl, 10% glycerol, 0.5% NP-40; three washes in the same buffer; recombinant protein; residues 161-522
cGAS C404A (human) = cGAS C404A (human) (UniProt Q8N884)
cGAS C405A (human) = cGAS C405A (human) (UniProt Q8N884)
cGAS WT (human) = cGAS WT (human) (UniProt Q8N884)
cGAS K384A (human) = cGAS K384A (human) (UniProt Q8N884)
cGAS K407A (human) = cGAS K407A (human) (UniProt Q8N884)
[1] = target: cGAS ΔZnF del390-405 (human) (UniProt Q8N884)
cGAS K411A (human) = cGAS K411A (human) (UniProt Q8N884)
cGAS K400E/K403E (human) = cGAS K400E/K403E (human) (UniProt Q8N884)

Sequence: TACAGATCTACTAGTGATCTATGACTGATCTGTACATGATCTACA (double strand) [biotinylated ISD (interferon stimulatory DNA)]
- binding result (cGAS C404A (human)): binds more weakly
- binding result (cGAS C405A (human)): binds
- binding result (cGAS WT (human)): binds
- binding result (cGAS K384A (human)): binds
- binding result (cGAS K407A (human)): binds
- binding result [1]: binds more weakly
- binding result (cGAS K411A (human)): binds
- binding result (cGAS K400E/K403E (human)): binds

Construct, isoform or probe ends are uncertain for at least one entry. For some assays here: The comparison behind a weaker result is the experiment's own reference, which may not be listed here.
